Measurements published in paper PMC4754343.
Results are given in words; binding and its absence hold for the method and conditions named. In cells and extracts the contact can be indirect. Some entries that bind do so weakly or less than the wild type. For part of these data: Tags and fused reporters may be left off the sequences shown.

B1: SCOTIN-MYC (protein, UniProt Q9D7I0 27-235)
chain: ELCRPFGEDNSIPVFCPDFCCGSCSNQYCCSDVLRKIQWNEEMCPEPESRFSTPAEETPEHLGSALKFRSSFDSDPMSGFGATVAIGVTIFVVFIATIIICFTCSCCCLYKMCCPQRPVVTNTTTTTVVHAPYPQPQPQPVAPSYPGPTYQGYHPMPPQPGMPAAPYPTQYPPPYLAQPTGPPPYHESLAGASQPPYNPTYMDSLKTIP
B2: SCOTIN-V5 (protein, UniProt Q9D7I0 27-235)
chain: B1 chain
B3: endogenous SCOTIN (protein, UniProt Q8N114 29-240)
chain: EVCMASRGLSLFPESCPDFCCGTCDDQYCCSDVLKKFVWSEERCAVPEASVPASVEPVEQLGSALRFRPGYNDPMSGFGATLAVGLTIFVLSVVTIIICFTCSCCCLYKTCRRPRPVVTTTTSTTVVHAPYPQPPSVPPSYPGPSYQGYHTMPPQPGMPAAPYPMQYPPPYPAQPMGPPAYHETLAGGAAAPYPASQPPYNPAYMDAPKAAL

Key:
[1] = molecular target: GST-NS5A (Full) (Hepatitis C virus (genotype not stated)) (UniProt Q9WMX2); assay: pull-down; GST pulldown: HEK293 cells co-transfected for 48 h; 1 mg of cell lysate incubated with 20 ul glutathione-Sepharose beads at 4 °C overnight, beads washed three times with lysis buffer; immunoblotting
[2] = molecular target: NS5A of Huh-neo-5-15 subgenomic replicon cells (Hepatitis C virus (subgenomic replicon in Huh-neo-5-15 cells)) (UniProt Q9WMX2); assay: co-IP; Huh-neo-5-15 subgenomic replicon cells; 1 mg of total cell lysate incubated with mouse normal IgG or an NS5A antibody for 12 h at 4 °C, then protein A/G agarose beads for 2 h; immunoblotting

Binder | binding [1] | binding [2]
B1 | binds | 
B2 | binds | 
B3 |  | binds
